{"source": "PubChem BioAssay AID624291", "about": "(National Center for Advancing Translational Sciences (NCATS), 2012)", "note": "Hit rate of the full screen: of about 350,000 compounds, about 220 (0.063%) were called active. Inconclusive results, whose numbers are uncertain, are shown with a selection of clear calls. The call rests on the fitted dose curve; in most records, active means well fitted activation curve with a large enough effect; inconclusive means small, poorly fitted or top-dose-only effect; inactive means no such curve, though single readings can be large or run the other way. Potencies beside an inconclusive call are fits to weak or partial responses and may not hold up. Potency means the concentration at half of the fitted maximal effect."}
{"assay": "qHTS for Activators of Integrin-Mediated Alleviation for Muscular Dystrophy; further: nearly all actives have a fitted effect of over 60% in size;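 on activation: 100% = response of the positive control SU9516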", "conditions": "alpha7betagal myoblasts, beta-gal FDG fluorescence, 48 h; activation: at 38.3 µM (top of the series)", "summary_of_the_method": "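alpha7betagal+/- myoblasts (passage 13, 250/well) treated 48 h at 37C with compounds at 1:260 dilution of DMSO stock. Lysed, then beta-galactosidase activity read as FDG fluorescence (ex 480/em 540) after 30 min, with pre-read for autofluorescence.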"}
{"smiles": "COc1cc2sc3cc(NCc4ccc5c(c4)OCO5)ccc3c(=O)c2cc1OC", "activation": "inactive: 14.3%"}
{"smiles": "COc1ccc(OC)c(NC(=O)CCN2CC(C)CC(C)C2)c1", "note": "(stereo not drawn)", "Potency": "inconclusive: 2 µM [activator, single point]"}
{"smiles": "O=C(Nc1ccc(Cl)cc1)Nc1nnc(CSCc2ccc(Cl)cc2)s1", "Potency": "inconclusive: 3.55 µM [activator, single point]"}
{"smiles": "Cc1ccc(NNc2c(C)nc3ccccc3nc2=O)cc1", "Potency": "inconclusive: 2 µM [activator, partial curve, poor fit]"}
{"smiles": "O=C1NCCCC1C(=O)N/N=C/c1ccccc1O", "note": "(stereo not drawn)", "Potency": "inconclusive: 5.62 µM [activator, partial curve, poor fit]"}
{"smiles": "Cc1ccccc1NC(=O)c1nn(C)c2c1CS(=O)(=O)c1ccccc1-2", "Potency": "inconclusive: 3.16 µM [activator, single point]"}
{"smiles": "O=C1c2ccccc2C(=O)C1c1ccccn1", "Potency": "inconclusive: 1.41 µM [activator, partial curve, poor fit]"}
{"smiles": "O=C(O)CCC(=O)N1N=C(c2ccccc2)CC1c1ccc(Br)cc1", "note": "(stereo not drawn)", "activation": "inactive: 3.73%"}
{"smiles": "COc1cc(NC(=O)c2c(OC)cccc2OC)ccc1NC(=O)c1cc2ccccc2o1", "activation": "inactive: 0%"}
{"smiles": "O=C(CSc1nnnn1C1CCCCC1)NNC(=O)c1ccco1", "Potency": "inconclusive: 28.2 µM [activator, single point]"}
{"smiles": "CC1CCCC(NC(=O)C2CCC(CNc3c(N4CCCC4)c(=O)c3=O)CC2)C1C", "note": "(stereo not drawn)", "Potency": "inconclusive: 1.58 µM [activator, partial curve, poor fit]"}
{"smiles": "O=C(NC1CCN(Cc2ccccc2)C1)c1cc(S(=O)(=O)N2CCOCC2)ccc1Cl", "note": "(stereo not drawn)", "Potency": "inconclusive: 3.16 µM [activator, partial curve, poor fit]"}
{"smiles": "O=C(NC1CCCN(CCc2ccccc2)C1)c1c[nH]c2ccccc12", "note": "(stereo not drawn)", "activation": "inactive: -1.55%"}
{"smiles": "O=C(CN1CCCCCCC1)NC(=O)NC1CCCCC1", "activation": "inactive: 12.5%"}
{"smiles": "Cc1c(CCC(=O)O)c(=O)oc2c(C)c3occ(-c4ccc(Cl)cc4)c3cc12", "Potency": "inconclusive: 11.2 µM [activator, single point]"}
{"smiles": "CCOC(=O)C1CCCN(Cc2ccc(OC)c(OCc3ccccc3)c2)C1", "note": "(stereo not drawn)", "activation": "inactive: 6.85%"}
{"smiles": "COc1ccc(S(=O)(=O)N/N=C\\c2ccc3c(c2)OCO3)c(OC)c1", "Potency": "inconclusive: 1.58 µM [activator, partial curve, poor fit]"}
{"smiles": "CC1CCCCN1C(=O)Nc1cccc(C(F)(F)F)c1", "note": "(stereo not drawn)", "Potency": "inconclusive: 28.2 µM [activator, single point]"}
{"smiles": "Cc1ccc(C(=O)c2coc3ccc(OCC(=O)O)cc23)cc1", "activation": "inactive: 15.4%"}
{"smiles": "O=c1c2cc(NC(=S)N3CCCCC3)ccc2nc2n1CCCCC2", "Potency": "inconclusive: 1 µM [activator, full curve, poor fit]"}
{"smiles": "CC(=O)Nc1ccc2c(c1)nc(C)n2-c1ccccc1", "Potency": "inconclusive: 1 µM [activator, full curve, poor fit]"}
{"smiles": "Cc1ccc(N2C(=O)C3C4C=CC(CNC(=S)Nc5cccc(Cl)c5)(O4)C3C2=O)cc1", "note": "(stereo not drawn)", "activation": "inactive: -30%"}
{"smiles": "CC1(C)NC(=O)N(CC(O)Cn2c3ccccc3c3ccccc32)C1=O", "note": "(stereo not drawn)", "Potency": "inconclusive: 3.16 µM [activator, single point]"}
{"smiles": "NC(=S)n1[nH]c(-c2ccc([N+](=O)[O-])cc2)c(N=Nc2cccc(Cl)c2)c1=O", "activation": "inactive: 17.8%"}
{"smiles": "Cc1onc(-c2c(F)cccc2Cl)c1C(=O)NCCc1ccncc1", "Potency": "inconclusive: 12.6 µM [activator, single point]"}
{"smiles": "CCOc1cc(-n2cnnn2)c(OCC)cc1NC(=O)c1cnccn1", "Potency": "inconclusive: 28.2 µM [activator, single point]"}
{"smiles": "Cc1ccc(C(=O)CCC(=O)N2CCN(C/C=C/c3ccccc3)CC2)cc1", "activation": "inactive: -8.84%"}
{"smiles": "COc1ccc(-c2csc(NC(=O)c3ccccc3F)c2C(=O)O)cc1", "activation": "inactive: 32.7%"}
{"smiles": "O=C(NCCNC(=O)c1ccccn1)c1ccc(Cl)cc1", "Potency": "inconclusive: 5.01 µM [activator, partial curve, poor fit]"}
{"smiles": "Cc1ccccc1NP(=O)(c1ccccc1)c1nc2ccccc2s1", "note": "(stereo not drawn)", "Potency": "inconclusive: 3.16 µM [activator, partial curve, poor fit]"}
{"smiles": "Cc1cc(OCC(=O)N(Cc2cccs2)C2CCS(=O)(=O)C2)ccc1Cl", "note": "(stereo not drawn)", "activation": "inactive: -6.11%"}
{"smiles": "CC(C)c1ccc(NC(=O)N2CCCC2C(=O)Nc2ccc(-n3cnnn3)cc2)cc1", "note": "(stereo not drawn)", "activation": "inactive: 3.94%"}
{"smiles": "O=C(Nc1ccccn1)c1ccc(Cl)c(S(=O)(=O)N2CCOCC2)c1", "Potency": "inconclusive: 28.2 µM [activator, single point]"}
{"smiles": "COc1ccc2nc(SCc3cccnc3)c(C#N)cc2c1", "activation": "inactive: 20.1%"}
{"smiles": "Cc1ccc(NC(=S)N(CCN(C)C)Cc2cccs2)c(C)c1", "activation": "inactive: -3.69%"}
{"smiles": "O=[N+]([O-])c1cccc(NC(=S)N2CCOCC2)c1", "Potency": "inconclusive: 2.51 µM [activator, single point]"}
{"smiles": "Cc1c(C(=O)OCc2ccc(F)cc2)sc2nc3n(c(=O)c12)CCC3", "Potency": "inconclusive: 2.82 µM [activator, single point]"}
{"smiles": "Cc1ccc(NC(=S)NC(=O)C2CC2)cc1Cl", "activation": "inactive: 2.78%"}
{"smiles": "Cc1ccc(N(Cc2ccccc2)C(=O)c2ccc(C)c(S(=O)(=O)N3CCOCC3)c2)cc1", "Potency": "inconclusive: 3.55 µM [activator, single point]"}
{"smiles": "O=C(N/C(=C/c1cccc([N+](=O)[O-])c1)C(=O)N1CCCC1)c1ccccc1", "activation": "inactive: -10.8%"}
{"smiles": "COc1ccc(-c2ccc(CN3C(C(C)C)C(=O)N(Cc4cn(Cc5ccco5)nn4)CCS3(=O)=O)cc2)cc1OC", "note": "(stereo not drawn)", "activation": "inactive: -0.573%"}
{"smiles": "S=C(Nc1ccc(Oc2ccccc2)cc1)Nc1cccnc1", "Potency": "inconclusive: 0.708 µM [activator, full curve, poor fit]"}
{"smiles": "O=C(Cc1ccccc1)Nc1ccc(NC(=O)c2cccs2)cc1Cl", "Potency": "inconclusive: 0.501 µM [activator, full curve, poor fit]"}
{"smiles": "Cc1nn(-c2ccccn2)c(N)c1N=O", "Potency": "inconclusive: 5.01 µM [activator, single point]"}
{"smiles": "Cc1ccc(N=Nc2c(C)[nH]n(C(N)=S)c2=O)cc1", "Potency": "inconclusive: 10 µM [activator, single point]"}
{"smiles": "COc1ccc2cc3cc(C(=O)N4CCCCC4C)oc3nc2c1", "note": "(stereo not drawn)", "Potency": "inconclusive: 5.01 µM [activator, single point]"}
{"smiles": "O=C1C(Cc2ccccc2)Nc2ncnc(N3CCc4ccccc4C3)c2N1Cc1ccccc1", "note": "(stereo not drawn)", "activation": "inactive: -18.8%"}
{"smiles": "CN1C[C@@H]2[C@@H]3C(=O)N(C)C(=O)[C@@H]3[C@](Cc3ccccc3)(C1=O)N2C(=O)c1ccc(Cl)cc1", "activation": "inactive: 9.39%"}
{"smiles": "COc1ccc(CCN2CC(C(=O)NCc3cnn(C(C)C)c3)CCC2=O)cc1", "note": "(stereo not drawn)", "Potency": "inconclusive: 2.51 µM [activator, full curve, poor fit]"}
{"smiles": "COc1ccc(NC(=O)CCNC(=O)c2ccco2)cc1Cl", "activation": "inactive: -6.04%"}
{"smiles": "COc1ccc(NC(=S)NC(NC(=O)c2cccc(Cl)c2)C(Cl)(Cl)Cl)c([N+](=O)[O-])c1", "note": "(stereo not drawn)", "activation": "inactive: -52.2%"}
{"smiles": "COc1ccc(Cl)cc1NC(=O)Cn1c(C)csc1=O", "Potency": "inconclusive: 7.94 µM [activator, partial curve, poor fit]"}
{"smiles": "CCOc1ccc(OCC)c(NC(=O)CSc2nc3ccccc3c(=O)n2C)c1", "activation": "inactive: -34.6%"}
{"smiles": "C/C(=N\\NC(=O)CNc1cccc2ccccc12)c1ccc(Br)s1", "Potency": "inconclusive: 4.47 µM [activator, single point]"}
{"smiles": "CCOC(=O)Cc1csc(NC(=O)Nc2ccc(F)cc2)n1", "Potency": "inconclusive: 22.4 µM [activator, single point]"}
{"smiles": "Clc1ccc(/C=C\\c2nccc3c2[nH]c2ccccc23)cc1", "activation": "inactive: -55.6%"}
{"smiles": "CC(=O)c1ccc2oc3ccccc3c(=O)c2c1", "activation": "inactive: 4.53%"}
{"smiles": "CCCCCCCCCCCCCCCC[n+]1cccc2ccccc21", "activation": "inconclusive: -54.8% [activator]"}
{"smiles": "COc1ccccc1NC(=O)c1ccc(NS(C)(=O)=O)cc1", "Potency": "inconclusive: 28.2 µM [activator, single point]"}
{"smiles": "COc1ccc(CCN2Cc3c(cccc3[N+](=O)[O-])C2=O)cc1OC", "Potency": "inconclusive: 0.447 µM [activator, full curve, poor fit]"}
{"smiles": "CCCC(=O)Nc1ccccc1-c1nnc(SCC)[nH]c1=O", "Potency": "inconclusive: 17.8 µM [activator, single point]"}
{"smiles": "COc1nc(-c2ccccc2)c2cc(C)ccc2n1", "activation": "inactive: -24.9%"}
{"smiles": "CCOc1ccc(N(C)S(=O)(=O)c2ccc(-c3cc(C)no3)s2)cc1", "activation": "inactive: -48.8%"}
{"smiles": "Cc1ccc(SC(=O)c2c(C)noc2-c2cc(C)on2)cc1", "Potency": "inconclusive: 4.47 µM [activator, single point]"}
{"smiles": "Cc1nn(CC(=O)NCC(C)c2ccccc2)c(=O)c2cc(-c3ccccc3)nn12", "note": "(stereo not drawn)", "Potency": "inconclusive: 17.8 µM [activator, single point]"}
{"smiles": "Cc1cc(CNC(=O)c2ccc3oc(C(C)C)nc3c2)nn1C", "Potency": "inconclusive: 0.562 µM [activator, full curve, poor fit]"}
{"smiles": "CCOC(=O)[C@H]1[C@H]2COc3cc(OC)ccc3[C@@H]2N2C(=O)CN(Cc3ccc(Cl)cc3)C(=O)[C@@]12C", "activation": "inconclusive: -26.4% [activator]"}
{"smiles": "CCCCOc1ncnc2c1[nH]c1ccc(F)cc12", "activation": "inactive: -51.4%"}
{"smiles": "CC(=O)Nc1ccc(N=Nc2ccccc2)cc1", "activation": "inactive: 9.87%"}
{"smiles": "O=C(CCCC(=O)c1ccccc1)NCCc1ccccc1", "Potency": "inconclusive: 28.2 µM [activator, single point]"}
{"smiles": "CS(=O)(=O)N(CC(=O)Nc1ccc(S(=O)(=O)N2CCOCC2)cc1)c1cccc(F)c1", "Potency": "inconclusive: 28.2 µM [activator, single point]"}
{"smiles": "COc1ccc(C)cc1NC(=O)CSc1nnc(-c2cc(C)[nH]n2)n1N", "Potency": "inconclusive: 5.62 µM [activator, partial curve, poor fit]"}
{"smiles": "CCN1CCN(C(=O)C2CCN(S(=O)(=O)c3ccc4c(c3)NC(=O)C(C)S4)CC2)CC1", "note": "(stereo not drawn)", "Potency": "inconclusive: 11.2 µM [activator, partial curve, poor fit]"}
